These are yes or no findings as the source states them, for the method shown. Some binding calls cover weakened binding; strength is not graded here.

For assay [1], the target named is T1, p32/gC1q-R, cell surface p32 on mouse plaque cells and 4T1 tumor macrophages (mouse) (UniProt O35658).
T1 sequence (looked up): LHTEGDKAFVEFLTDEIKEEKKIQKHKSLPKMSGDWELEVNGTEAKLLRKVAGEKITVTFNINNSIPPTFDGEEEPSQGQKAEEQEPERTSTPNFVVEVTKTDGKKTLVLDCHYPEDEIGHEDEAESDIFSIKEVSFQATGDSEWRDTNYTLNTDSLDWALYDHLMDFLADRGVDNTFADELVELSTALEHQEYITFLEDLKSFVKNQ
As to the kind of experiment: flow cytometry of FAM-LyP-1 against FAM-ARAL on primary mouse cells (FIG. 11B).

Assay [2] has as its target T1, p32/gC1q-R, cell surface p32 on mouse plaque cells and 4T1 tumor macrophages (mouse). Put plainly: flow cytometry; 1 nmol FAM-peptide incubated 10 min on ice with live primary mouse cells. Background: In flow cytometry, cells or beads pass a laser one at a time.

In the case of CGNKRTRGC (labeled with fluorescein (FAM); cyclic 9-amino acid peptide) [FAM-LyP-1 (fluorescein-labeled LyP-1 peptide, …)], the binding result in assay [1] and in assay [2] was “binds” throughout.

Source of the values: patent US20130115167A1.
